# Test system: Ba/F-FLT3-ITD cells
# Experiment: [3H]-thymidine proliferation assay, PKC412-sensitive Ba/F-FLT3-ITD cells
# Format: cell-based
# Conditions: PKC412 at indicated concentrations; 48 hours
smiles,measurement,value
CO[C@@H]1[C@H](N(C)C(=O)c2ccccc2)C[C@H]2O[C@]1(C)n1c3ccccc3c3c4c(c5c6ccccc6n2c5c31)C(=O)NC4 [PKC412],inhibition of proliferation,inhibited the proliferation of Ba/F-FLT3-ITD cells in a dose-dependent manner
